Results are given in words; binding and its absence hold for the method and conditions named. Binding seen in cells or lysates may run through a third protein. Some entries that bind do so weakly or less than the wild type.
Target: FLAG-tagged Ku70 (human) (UniProt P12956)
Test: co-IP; HEK293T, co-transfected; RIPA lysate, 1 mg protein, anti-FLAG M2 affinity gel; blots with anti-ATG5 and anti-FLAG; cells with vehicle, etoposide, doxorubicin or cisplatin

Chains of the proteins cited; added tags and fusions are not shown.
UniProt P12956: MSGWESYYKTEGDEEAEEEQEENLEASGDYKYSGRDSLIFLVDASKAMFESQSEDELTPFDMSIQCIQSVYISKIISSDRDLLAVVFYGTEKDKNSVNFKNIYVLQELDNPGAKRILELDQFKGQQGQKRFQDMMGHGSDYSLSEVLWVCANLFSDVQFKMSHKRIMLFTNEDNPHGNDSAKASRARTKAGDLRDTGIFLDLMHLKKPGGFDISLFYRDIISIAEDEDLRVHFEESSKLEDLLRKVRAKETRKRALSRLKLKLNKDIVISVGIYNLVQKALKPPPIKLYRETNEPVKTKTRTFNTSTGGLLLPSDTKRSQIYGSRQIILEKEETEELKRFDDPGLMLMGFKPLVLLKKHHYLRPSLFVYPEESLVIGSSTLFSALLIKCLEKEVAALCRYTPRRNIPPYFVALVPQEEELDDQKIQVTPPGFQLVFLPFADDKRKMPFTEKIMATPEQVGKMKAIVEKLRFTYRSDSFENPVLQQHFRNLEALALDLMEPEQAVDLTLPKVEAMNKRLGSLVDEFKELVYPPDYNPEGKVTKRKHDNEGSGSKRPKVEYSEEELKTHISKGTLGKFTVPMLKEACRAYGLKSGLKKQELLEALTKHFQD

B1: truncated ATG5 (1-192 a.a. of the human ATG5, lack of ATG5 C-terminal domain) (domain or fragment, UniProt Q9H1Y0 1-192)
chain: MTDDKDVLRDVWFGRIPTCFTLYQDEITEREAEPYYLLLPRVSYLTLVTDKVKKHFQKVMRQEDISEIWFEYEGTPLKWHYPIGLLFDLLASSSALPWNITVHFKSFPEKDLLHCPSKDAIEAHFMSCMKEADALKHKSQVINEMQKKDHKQLWMGLQNDRFDQFWAINRKLMEYPAEENGFRYIPFRIYQT
For B1, the binding was “binds”.

From paper PMC9114114
